Test results published in patent US8815527 (Stanford University, dated 2014).
No constants are given. Whether binding was seen depends on the method and setting. Some binding calls cover weakened binding; strength is not graded here.

How the values were obtained:
[1] = target: T1, β3 integrin, surface protein of NIH3T3-derived cells (UniProt O54890); assay: two-column affinity chromatography (ICAM-2 solid support, streptavidin-agarose) and immunoblot
T1 sequence (surface biotinylated (sulfo-NHS-LC-Biotin), looked up): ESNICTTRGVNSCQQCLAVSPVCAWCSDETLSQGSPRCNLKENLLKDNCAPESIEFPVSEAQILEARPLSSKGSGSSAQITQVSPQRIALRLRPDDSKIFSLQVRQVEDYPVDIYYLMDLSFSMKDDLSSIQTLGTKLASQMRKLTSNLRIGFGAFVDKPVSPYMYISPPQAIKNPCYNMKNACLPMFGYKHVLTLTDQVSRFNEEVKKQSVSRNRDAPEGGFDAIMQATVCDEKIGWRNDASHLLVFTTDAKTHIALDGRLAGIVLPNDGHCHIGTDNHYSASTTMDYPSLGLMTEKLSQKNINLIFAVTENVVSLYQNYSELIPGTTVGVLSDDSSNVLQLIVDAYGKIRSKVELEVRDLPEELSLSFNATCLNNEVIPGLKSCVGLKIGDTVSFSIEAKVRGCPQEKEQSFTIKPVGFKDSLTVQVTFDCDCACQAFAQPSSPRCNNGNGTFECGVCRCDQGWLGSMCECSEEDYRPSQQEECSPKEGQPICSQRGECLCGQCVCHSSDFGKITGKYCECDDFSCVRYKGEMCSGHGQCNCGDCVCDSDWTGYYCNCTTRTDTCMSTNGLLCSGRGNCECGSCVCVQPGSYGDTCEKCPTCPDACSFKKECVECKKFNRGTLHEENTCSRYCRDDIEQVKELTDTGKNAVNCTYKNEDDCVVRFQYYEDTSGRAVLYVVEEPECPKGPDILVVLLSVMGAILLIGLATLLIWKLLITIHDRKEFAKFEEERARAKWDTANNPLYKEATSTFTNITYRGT

[2] = target: T1, β3 integrin, surface protein of NIH3T3-derived cells; assay: affinity chromatography and immunoblot (figure legend)
[3] = target: T1, β3 integrin, surface protein of NIH3T3-derived cells; assay: final eluates of the ICAM-2 solid support and the streptavidin-agarose column (surface-biotinylated cells) immunoblotted with an anti-β3 monoclonal antibody

Measured: binding

B1: soluble human ICAM-2 protein, biochemically purified from retrovirally transduced NIH3T3 cells (ligand, UniProt P13598 25-275, looked up)
chain: KVFEVHVRPKKLAVEPKGSLEVNCSTTCNQPEVGGLETSLDKILLDEQAQWKHYLVSNISHDTVLQCHFTCSGKQESMNSNVSVYQPPRQVILTLQPTLVAVGKSFTIECRVPTVEPLDSLTLFLFRGNETLHYETFGKAAPAPQEATATFNSTADREDGHRNFSCLAVLDLMSRGGNIFHKHSAPKMLEIYEPVSDSQMVIIVTVVSVLLSLFVTSVLLCFIFGQHLRQQRMGTYGVRAAWRRLPQAFRP
modifications: FITC (NHS-fluorescein) conjugate where used as ICAM-2-FITC, sites not stated
notes: mature; also called sICAM-2; soluble ICAM-2
binds: all assays above
